{"source": "PubChem BioAssay AID1224827 (NIAID, 2016)", "aim": "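Identify regulators of the macrophage TNF-alpha response to bacterial LPS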 (follow-up of hits)", "cells": "RAW264.7 G9 mouse macrophage reporter clone", "reagent": "single siRNA against mouse genes, 100 nM siRNA", "timing": "siRNA for 2 days, then LPS about 16 h", "challenge": "bacterial lipopolysaccharide (LPS), 10 ng/ml, cells fixed after overnight (about 16 h) stimulation", "read-out": "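TNF promoter reporter red fluorescence in nuclei, background subtracted, normalised per plate and to non-targeting control siRNA, as z-scores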", "direction": "TNF reporter z-score, mean: higher = stronger Tnf promoter reporter signal", "active means": "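An siRNA is called active when its mean z-score over replicates is at least +2 or at most -2; control wells get no call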", "note": "This is an unselected part of about 3,800 reagents. About 2,200 of all reagents (57%) were called active. 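Active means a strong reporter change in either direction; calls are per siRNA, not per gene; qiagen siRNAs gave weaker effects.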 A number with no mark means an inactive call. Not all columns of the deposit are shown."}
{"Gene": "Cldn6 (claudin 6)", "PubChem SID": "SID315485697", "TNF reporter z-score, mean": "3.12 (active)"}
{"Gene": "Cldn6 (claudin 6)", "PubChem SID": "SID315485698", "TNF reporter z-score, mean": "-2.74 (active)"}
{"Gene": "Cldn6 (claudin 6)", "PubChem SID": "SID315485699", "TNF reporter z-score, mean": "-5.24 (active)"}
{"Gene": "Cldn6 (claudin 6)", "PubChem SID": "SID315485700", "TNF reporter z-score, mean": "8.39 (active)"}
{"Gene": "Cldn6 (claudin 6)", "PubChem SID": "SID315485701", "TNF reporter z-score, mean": "-2.24 (active)"}
{"Gene": "Cldn6 (claudin 6)", "PubChem SID": "SID315485702", "TNF reporter z-score, mean": "-2.19 (active)"}
{"Gene": "Hras (Hras proto-oncogene, GTPase)", "PubChem SID": "SID315484347", "TNF reporter z-score, mean": "4.19 (active)"}
{"Gene": "Hras (Hras proto-oncogene, GTPase)", "PubChem SID": "SID315484348", "TNF reporter z-score, mean": -0.88}
{"Gene": "Hras (Hras proto-oncogene, GTPase)", "PubChem SID": "SID315484349", "TNF reporter z-score, mean": -0.711}
{"Gene": "Hras (Hras proto-oncogene, GTPase)", "PubChem SID": "SID315484350", "TNF reporter z-score, mean": 0.317}
{"Gene": "Hras (Hras proto-oncogene, GTPase)", "PubChem SID": "SID315484351", "TNF reporter z-score, mean": -1.07}
{"Gene": "Hras (Hras proto-oncogene, GTPase)", "PubChem SID": "SID315484352", "TNF reporter z-score, mean": -1.39}
{"Gene": "Gadd45g (growth arrest and DNA-damage-inducible 45 gamma)", "PubChem SID": "SID315485232", "TNF reporter z-score, mean": -1.73}
{"Gene": "Gadd45g (growth arrest and DNA-damage-inducible 45 gamma)", "PubChem SID": "SID315485233", "TNF reporter z-score, mean": "-3.61 (active)"}
{"Gene": "Gadd45g (growth arrest and DNA-damage-inducible 45 gamma)", "PubChem SID": "SID315485234", "TNF reporter z-score, mean": "-4.23 (active)"}
{"Gene": "Gadd45g (growth arrest and DNA-damage-inducible 45 gamma)", "PubChem SID": "SID315485235", "TNF reporter z-score, mean": 0.611}
{"Gene": "Gadd45g (growth arrest and DNA-damage-inducible 45 gamma)", "PubChem SID": "SID315485236", "TNF reporter z-score, mean": -0.372}
{"Gene": "Gadd45g (growth arrest and DNA-damage-inducible 45 gamma)", "PubChem SID": "SID315485237", "TNF reporter z-score, mean": -1.16}
{"Gene": "Tnfrsf13c (tumor necrosis factor receptor superfamily, member 13c)", "PubChem SID": "SID315486699", "TNF reporter z-score, mean": "5.08 (active)"}
{"Gene": "Tnfrsf13c (tumor necrosis factor receptor superfamily, member 13c)", "PubChem SID": "SID315486700", "TNF reporter z-score, mean": "3.06 (active)"}
{"Gene": "Tnfrsf13c (tumor necrosis factor receptor superfamily, member 13c)", "PubChem SID": "SID315486701", "TNF reporter z-score, mean": -1.98}
{"Gene": "Tnfrsf13c (tumor necrosis factor receptor superfamily, member 13c)", "PubChem SID": "SID315486702", "TNF reporter z-score, mean": 1.1}
{"Gene": "Tnfrsf13c (tumor necrosis factor receptor superfamily, member 13c)", "PubChem SID": "SID315486703", "TNF reporter z-score, mean": -0.587}
{"Gene": "Tnfrsf13c (tumor necrosis factor receptor superfamily, member 13c)", "PubChem SID": "SID315486704", "TNF reporter z-score, mean": -0.564}
{"Gene": "Gspt1 (G1 to S phase transition 1)", "PubChem SID": "SID315484233", "TNF reporter z-score, mean": "7.27 (active)"}
{"Gene": "Gspt1 (G1 to S phase transition 1)", "PubChem SID": "SID315484234", "TNF reporter z-score, mean": "5.14 (active)"}
{"Gene": "Gspt1 (G1 to S phase transition 1)", "PubChem SID": "SID315484235", "TNF reporter z-score, mean": 1.91}
{"Gene": "Gspt1 (G1 to S phase transition 1)", "PubChem SID": "SID315484236", "TNF reporter z-score, mean": -1.51}
{"Gene": "Gspt1 (G1 to S phase transition 1)", "PubChem SID": "SID315484237", "TNF reporter z-score, mean": "-2.57 (active)"}
{"Gene": "Gspt1 (G1 to S phase transition 1)", "PubChem SID": "SID315484238", "TNF reporter z-score, mean": "-3.45 (active)"}
{"Gene": "Thrsp (thyroid hormone responsive)", "PubChem SID": "SID315485004", "TNF reporter z-score, mean": "2.83 (active)"}
{"Gene": "Thrsp (thyroid hormone responsive)", "PubChem SID": "SID315485005", "TNF reporter z-score, mean": 0.136}
{"Gene": "Thrsp (thyroid hormone responsive)", "PubChem SID": "SID315485006", "TNF reporter z-score, mean": "-3.58 (active)"}
{"Gene": "Thrsp (thyroid hormone responsive)", "PubChem SID": "SID315485007", "TNF reporter z-score, mean": 1.44}
{"Gene": "Thrsp (thyroid hormone responsive)", "PubChem SID": "SID315485008", "TNF reporter z-score, mean": 1.63}
{"Gene": "Thrsp (thyroid hormone responsive)", "PubChem SID": "SID315485009", "TNF reporter z-score, mean": "-2.18 (active)"}
{"Gene": "Drap1 (DR1 associated protein 1)", "PubChem SID": "SID315486378", "TNF reporter z-score, mean": "-2.12 (active)"}
{"Gene": "Drap1 (DR1 associated protein 1)", "PubChem SID": "SID315486379", "TNF reporter z-score, mean": "-3.72 (active)"}
{"Gene": "Drap1 (DR1 associated protein 1)", "PubChem SID": "SID315486380", "TNF reporter z-score, mean": "-4.45 (active)"}
{"Gene": "Drap1 (DR1 associated protein 1)", "PubChem SID": "SID315486381", "TNF reporter z-score, mean": 0.764}
{"Gene": "Drap1 (DR1 associated protein 1)", "PubChem SID": "SID315486382", "TNF reporter z-score, mean": -1.37}
{"Gene": "Drap1 (DR1 associated protein 1)", "PubChem SID": "SID315486383", "TNF reporter z-score, mean": -1.61}

Sorted by “TNF reporter z-score, mean” (low to high): some entries from above.
{"Gene": "Cldn6 (claudin 6)", "PubChem SID": "SID315485701", "TNF reporter z-score, mean": "-2.24 (active)"}
{"Gene": "Cldn6 (claudin 6)", "PubChem SID": "SID315485702", "TNF reporter z-score, mean": "-2.19 (active)"}
